This note sets out measurements from patent US20180296691A1 (Pfizer, published 2018).

This assay concerns the target recombinant cynomolgus monkey EFNA4 extracellular domain fused to a histidine tag (cynomolgus monkey). As to the kind of experiment: SPR (BIAcore 2000), recombinant EFNA4 ECD-His. In general terms: Surface plasmon resonance follows binding to a sensor surface in real time, without labels.

Results are given in words; binding and its absence hold for the method and conditions named. Some results given as binding are weak or reduced against the parent protein; the word gives no strength.

B1: humanized anti-EFNA4 antibody huE22 (antibody, human IgG1, kappa, V domains shown)
VH: QVQLVQSGAEVKKPGASVKVSCKASGYTFTGYYIHWVRQAPGQGLEWMGWIYPGNFNTKYNERFKGRVTMTTDTSTSTAYMELRSLRSDDTAVYYCAREDGSPYYAMDYWGQGTSVTVSS
VL: DIVMTQTPLSLSVTPGQPASISCRSSQSLVHSNGNTFLYWYLQKPGQSPQLLIYRVSNRFSGVPDRFSGSGSGTDFTLKISRVEAEDVGVYYCFQATHVPWTFGGGTKVEIKR
notes: human IgG1 / kappa; also called huE22 mAb; unconjugated huE22
Consider B1, for which the binding result is reported as “binds”.
